Experimental findings from US11981918B2, “Differentiation technique to generate dopaminergic neurons from induced pluripotent stem cells” (CEDARS-SINAI MEDICAL CENTER, priority 2018, dated 2024) are described below.

For this assay, the system named is Midbrain-Chip DA-neurons.

For the compound `CN1CC[C@]23c4c5ccc(O)c4O[C@H]2[C@@H](O)C=C[C@H]3[C@H]1C5` [morphine], the “response to morphine (dopamine from chip effluent)” value is “respond to morphine treatment”.
